# Laboratory results: patent publication US9238631B2, “Radiolabeled amino acids for diagnostic imaging” (PIRAMAL IMAGING SA, priority 2011, dated 2016)
# Some of these results come from one statement about several compounds together. At least one structure is not confirmed: it was looked up by name or label, or the drawing left a doubt.
# Molecular target: T1, xCT (SLC7A11) (Homo sapiens, UniProt Q9UPY5)
# T1 construct: NCI-H460 tumor cells were co-incubated with the F-18 labeled tracer and several cold derivatives; endogenous in cells; host or cells: NCI-H460 tumor cells
# T1 sequence (Q9UPY5 1-501): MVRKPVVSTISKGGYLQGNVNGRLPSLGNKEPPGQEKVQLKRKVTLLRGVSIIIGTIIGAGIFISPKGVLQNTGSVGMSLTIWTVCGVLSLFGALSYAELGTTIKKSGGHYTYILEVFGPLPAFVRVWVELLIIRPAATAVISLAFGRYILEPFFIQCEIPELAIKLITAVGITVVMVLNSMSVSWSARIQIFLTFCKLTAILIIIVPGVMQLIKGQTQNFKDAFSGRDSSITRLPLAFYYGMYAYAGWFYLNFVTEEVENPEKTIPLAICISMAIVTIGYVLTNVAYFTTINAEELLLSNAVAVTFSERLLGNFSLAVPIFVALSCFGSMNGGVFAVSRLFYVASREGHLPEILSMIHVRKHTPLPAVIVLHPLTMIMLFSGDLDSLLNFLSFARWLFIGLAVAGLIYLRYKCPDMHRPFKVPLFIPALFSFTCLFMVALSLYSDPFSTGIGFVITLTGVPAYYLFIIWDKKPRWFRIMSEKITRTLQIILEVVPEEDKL
# T1 sequence (P08195 1-529 partner): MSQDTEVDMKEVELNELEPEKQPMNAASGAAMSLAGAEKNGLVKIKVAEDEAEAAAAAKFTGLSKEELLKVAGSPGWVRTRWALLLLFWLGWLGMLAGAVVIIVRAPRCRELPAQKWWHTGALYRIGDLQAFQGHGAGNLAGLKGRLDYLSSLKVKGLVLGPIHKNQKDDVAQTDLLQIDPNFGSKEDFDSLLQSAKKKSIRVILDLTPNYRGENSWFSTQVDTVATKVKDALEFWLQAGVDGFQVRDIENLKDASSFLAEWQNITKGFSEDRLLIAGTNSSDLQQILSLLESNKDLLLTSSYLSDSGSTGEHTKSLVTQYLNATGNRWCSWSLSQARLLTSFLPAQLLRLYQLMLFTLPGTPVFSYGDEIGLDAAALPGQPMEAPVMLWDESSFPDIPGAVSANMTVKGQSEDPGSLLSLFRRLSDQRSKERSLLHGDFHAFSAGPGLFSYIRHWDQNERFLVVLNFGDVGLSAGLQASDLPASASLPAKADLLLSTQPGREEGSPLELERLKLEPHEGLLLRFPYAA
# Assay: Competition profile indicating uptake via xCT (SLC7A11)
# Type: cell-based
# Conditions: competitor 1 mM, NCI-H460 cells
# Experimental: For determination of the responsible uptake mechanism, NCI-H460 tumor cells were co-incubated with the F-18 labeled tracer and several cold derivatives. These derivatives were used at a concentration of 1 mM, which is a large excess compared to the tracer. L-Glutamic acid, L-cystine, Carboxyphenylglycine (CPG) were used as competitors. In addition, also D-Glutamic acid, as well as L-aspartic acid and D-aspartic acid were used in this competition experiments. […] The same experiments were performed using [^18F]-1, [^18F]-4, [^18F]-9, [^18F]-8, [^18F]-25 and [^18F]-22.
compound,measurement,value
"N[C@@H](CCC(=O)O)C(=O)O [L-glutamic acid, L-glutamate, reference compound]",reduction of [^18F]-12 uptake by excess competitor,more than 90%
